Our source for the binding values is PMC8847575, “HSL1 and BAM1/2 impact epidermal cell development by sensing distinct signaling peptides” (Nature Communications, 2022).

By UniProt entry, the sequences of proteins in these tests, tags left out. Where a name states a change or a piece, a line headed by the entry shows the natural chain unless it says otherwise.
UniProt Q9FZE4: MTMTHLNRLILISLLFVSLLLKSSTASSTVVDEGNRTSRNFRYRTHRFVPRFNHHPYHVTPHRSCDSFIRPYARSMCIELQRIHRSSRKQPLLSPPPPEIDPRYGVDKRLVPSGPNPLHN

For test [1], the target named is T1, BAM1 (BARELY ANY MERISTEM 1) ectodomain (Arabidopsis) (UniProt O49545).
T1 sequence: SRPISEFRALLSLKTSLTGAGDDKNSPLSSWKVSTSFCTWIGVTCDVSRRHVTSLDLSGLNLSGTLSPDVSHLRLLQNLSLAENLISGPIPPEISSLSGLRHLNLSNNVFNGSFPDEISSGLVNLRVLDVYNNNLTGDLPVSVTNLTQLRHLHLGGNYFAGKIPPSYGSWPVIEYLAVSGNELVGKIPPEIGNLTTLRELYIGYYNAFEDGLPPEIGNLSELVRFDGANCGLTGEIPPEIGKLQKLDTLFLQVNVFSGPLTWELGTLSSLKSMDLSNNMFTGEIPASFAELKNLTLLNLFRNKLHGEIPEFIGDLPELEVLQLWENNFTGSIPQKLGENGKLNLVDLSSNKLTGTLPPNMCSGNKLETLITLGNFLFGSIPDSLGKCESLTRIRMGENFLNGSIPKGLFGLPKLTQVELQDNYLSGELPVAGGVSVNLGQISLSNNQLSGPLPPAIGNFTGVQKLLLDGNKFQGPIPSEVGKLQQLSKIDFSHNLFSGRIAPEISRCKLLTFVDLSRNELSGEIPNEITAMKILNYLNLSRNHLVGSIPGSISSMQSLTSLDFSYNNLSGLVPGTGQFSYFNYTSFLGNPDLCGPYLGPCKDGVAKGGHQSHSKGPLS
Briefly: ITC; peptide (75 to 600 µM) injected into 10 to 30 µM HSL1 or BAM1 ectodomain in the cell; 25 °C; 20 mM sodium citrate pH 5.0, 150 mM NaCl; N fitted to 1; both purified. (In general: In ITC the heat of successive injections is recorded.)

Test [2] concerns the target T2, HSL1^Y261AR402A ectodomain (Arabidopsis) (UniProt Q9SGP2).
T2 sequence: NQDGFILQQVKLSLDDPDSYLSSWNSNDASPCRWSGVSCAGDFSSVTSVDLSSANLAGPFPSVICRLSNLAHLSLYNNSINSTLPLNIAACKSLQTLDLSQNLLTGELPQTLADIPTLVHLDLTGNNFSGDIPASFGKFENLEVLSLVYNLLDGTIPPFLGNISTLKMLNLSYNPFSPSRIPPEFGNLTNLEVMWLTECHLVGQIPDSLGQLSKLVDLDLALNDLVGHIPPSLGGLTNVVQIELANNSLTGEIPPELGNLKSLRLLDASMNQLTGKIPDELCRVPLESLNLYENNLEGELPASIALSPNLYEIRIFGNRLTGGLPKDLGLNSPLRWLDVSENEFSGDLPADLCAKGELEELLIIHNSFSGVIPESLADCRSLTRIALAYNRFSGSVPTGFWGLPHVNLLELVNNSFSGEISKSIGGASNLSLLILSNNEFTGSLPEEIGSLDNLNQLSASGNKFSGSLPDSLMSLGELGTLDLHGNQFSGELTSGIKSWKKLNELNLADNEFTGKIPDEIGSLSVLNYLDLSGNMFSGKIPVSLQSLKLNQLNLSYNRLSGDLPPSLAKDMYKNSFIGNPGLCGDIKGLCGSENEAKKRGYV
The test can be described thus: SEC; Superdex 200 Increase 10/300 GL; 20 mM citric acid pH 5, 100 mM NaCl; 200 µg HSL1 or mutant with SERK1 without or with peptide, 1:1:1.5 molar ratio; fractions on SDS-PAGE; both purified. On the technique in general: Size exclusion chromatography separates by hydrodynamic size, large species first.

The target of test [3] is T3, HSL1^N543AY544AN566A ectodomain (Arabidopsis) (UniProt Q9SGP2).
T3 sequence: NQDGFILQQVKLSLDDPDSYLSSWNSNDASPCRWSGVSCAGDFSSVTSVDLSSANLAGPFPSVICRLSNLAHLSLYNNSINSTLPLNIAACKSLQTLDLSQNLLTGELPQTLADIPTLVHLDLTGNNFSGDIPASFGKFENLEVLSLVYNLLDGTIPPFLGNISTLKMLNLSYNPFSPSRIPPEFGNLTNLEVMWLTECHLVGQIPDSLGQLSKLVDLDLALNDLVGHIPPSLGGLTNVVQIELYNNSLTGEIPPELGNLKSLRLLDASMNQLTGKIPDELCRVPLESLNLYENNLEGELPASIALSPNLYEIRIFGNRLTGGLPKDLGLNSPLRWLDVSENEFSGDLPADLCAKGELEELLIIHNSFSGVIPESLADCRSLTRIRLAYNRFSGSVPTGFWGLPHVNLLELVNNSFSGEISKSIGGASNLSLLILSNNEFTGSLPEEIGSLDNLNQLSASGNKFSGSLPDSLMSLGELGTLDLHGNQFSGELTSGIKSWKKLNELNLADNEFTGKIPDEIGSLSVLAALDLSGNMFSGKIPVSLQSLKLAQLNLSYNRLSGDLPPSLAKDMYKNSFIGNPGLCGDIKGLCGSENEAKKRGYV
The description is as above.

These are yes or no findings as the source states them, for the method shown.

B1: CLE9^R109PL110IV111P peptide (peptide, UniProt Q9FZE4 109-120)
peptide: PIPPSGPNPLHN
In the case of B1, the binding entry in test [1] is recorded as “no binding”.

B2: SERK1 (SOMATIC EMBRYOGENESIS RECEPTOR KINASE 1) ectodomain (domain or fragment)
chain: ASANLEGDALHTLRVTLVDPNNVLQSWDPTLVNPCTWFHVTCNNENSVIRVDLGNAELSGHLVPELGVLKNLQYLELYSNNITGPIPSNLGNLTNLVSLDLYLNSFSGPIPESLGKLSKLRFLRLNNNSLTGSIPMSLTNITTLQVLDLSNNRLSGSVPDNGSFSLFTPISFANNLDLCGPVTSHPCPGS
Regarding B2, the binding result in test [2] and in test [3] was “no binding” in each case.
